# Measurements from US20070098649A1, “Method and composition for controlling oral pathogens” (priority 2004, published 2007).
# Where two headings read alike, the source gives them in different places. For at least one compound, name, drawing or mass did not settle the structure. Some results were stated once for a whole list of compounds, not compound by compound.
# How the values were obtained:
# [1] = test system: test bacteria; experiment: MIC microdilution assay, statements on all test bacteria; format: cell-based; details: for Concentration without growth inhibition of the test bacteria (MIC bound): all test bacteria
# [2] = test system: A. actinomycetemcomitans; experiment: Growth on agar with berberine and/or methylene blue (efflux screen); format: cell-based; details: 62.5, 125, 250 μg ml^−1
# [3] = test system: mice; details: 5 mg/kg i.p.; cited from earlier work
# [4] = test system: A. actinomycetemcomitans; experiment: Accumulation of berberine, fluorimetric assay; format: cell-based; details: berberine 500 μg ml^−1; FIG. 1
# Procedure: Accumulation of berberine in A. actinomycetemcomitans was evaluated using a fluorimetric assay (based in Giraud et al., 2000). Overnight cells were harvested as previously described, washed twice with 50 mM sodium phosphate buffer (pH 7), resuspended in the same buffer at a concentration of 1×10^9 CFU ml^−1. The cells were equilibrated for 10 minutes at 37° C. Berberine was added at a final concentration of 500 μg ml^−1. After addition of berberine, 0.5 ml samples were removed at different time intervals. Five minutes after the addition of berberine, the efflux pump inhibitor carbonyl cyanide m-chlorophenylhydrazone (CCCP) was added to the reaction mixture (final concentration 100 μM). The samples were immediately diluted with 1 ml ice-cold sodium phosphate buffer and then were centrifuged for 5 minutes at 560.0×g. The pellet was washed once with 1 ml ice-cold buffer and resuspended in 1 ml of 0.1 M glycine hydrochloride (pH 3) for at least 15 hours at room temperature. The fluorescence of the supernatant was measured (excitation 355 nm and emission 517 nm) with a spectrofluorimeter (Model 810/814, Photon Technology International, Monmouth Junction, N.J.).
# [5] = test system: cholera; details: berberine 100 mg; by reducing tetracycline absorption; cited from earlier work
smiles,measurement,setting,value
"COc1ccc2cc3[n+](cc2c1OC)CCc1cc2c(cc1-3)OCO2 [B-CG, berberine chloride]",Inhibitory effects on the test bacteria,[1],"Inhibitory effects against all the bacteria, except A. actinomycetemcomitans"
same,Growth on agar in the presence of B-CG,[2],grew in the presence of B-CG at all concentrations
COc1ccc2cc3[n+](cc2c1OC)CCc1cc2c(cc1-3)OCO2 [berberine chloride],Difference in antimicrobial activity between berberine sources,[1],no difference in antimicrobial activity
same,Protection from amphetamine toxicity,[3],no significant effect
"COc1cc2c(cc1O)[C@@H]1Cc3ccc(OC)c(OC)c3CN1CC2 [Isocorypalamine, isocorypalmine]",Concentration without growth inhibition of the test bacteria (MIC bound),[1],> 250 µg/mL
"COc1ccc2cc3[n+](cc2c1OC)CCc1cc2c(cc1-3)OCO2 [Berberine, 5,6-dihydro-9,10-dimethoxybenzo[g]-1,3-benzodioxolo[5,6-a]quinolizinium]",Difference in antimicrobial activity between berberine sources,"[1]; B-CG, B-G and commercial B-S compared",no difference in antimicrobial activity
same,Inhibitory effects on the test bacteria,[1]; Table 2,"Inhibitory effects against all the bacteria, except A. actinomycetemcomitans"
same,Accumulation / efflux of berberine in cells,[4],initial accumulation was observed followed by a decline
same,Effect on the efficacy of tetracycline,[5],reduced the efficacy of tetracycline
"COc1ccc2c(c1OC)C(=O)O[C@@H]2[C@H]1c2cc3c(cc2CCN1C)OCO3 [Hydrastine, hydrastine]",Concentration without growth inhibition of the test bacteria (MIC bound),[1],> 250 µg/mL
